Assay results reported in US20230310330A1, “PEPTIDIC OLIGOMERS AND METHODS OF USING THE SAME” (BIOVENTURES, LLC, priority 2022, published 2023).
Part of at least one peptide drawing is inferred or uncertain, most often the ends.

Columns and labels:
4T1 cells = test: Cell uptake of FITC-tagged peptidic oligomers, fluorescence at different temperatures; format: cell-based, mouse; settings: 4° C. versus room temperature / 37° C.
[1] = test system: triple-negative 4T1 breast carcinoma; test: In vivo efficacy in subcutaneous 4T1 tumor model; design: species or system Balb/c mice; settings: daily i.p. q1dx10 from day 5; 2 mg/kg B6Sulforophane, B6 and sulforaphane in molar equivalent doses
vacuolar ATPase = test: Bafilomycin A1 block of FITC-labeled CPP translocation, flow cytometry; format: cell-based; settings: with Bafilomycin A1
Description: FIG. 15: Bafilomycin Al blocks CPP translocation. (A) FITC-labeled B6 and G6 are easily detected by flow cytometry.
Vacuolar ATPase aids in the transport to the interior of acidic organelles and BafA1 efficiently neutralizes the luminal pH, inhibits acidic hydrolases, and impairs the fusion among acidic organelles.

[2] = Encapsulation efficiency of sulforaphane by peptidic oligomer, LCMS; format: physicochemical; settings: overnight, room temperature
4T1 breast cancer cells = test: In vitro cell viability assay, CellTiter-Glo, 72 hours; format: cell-based, mouse; settings: 4T1 cells
Description: The assay was run for 72 hours with the CellTiter-Glo assay to determine cell viability.

With CC(C)(C)OC(=O)N[C@@H](CNC(=O)[C@H](CNC(=O)[C@H](CNC(=O)[C@H](CNC(=O)[C@H](CNC(=O)[C@H](CN)NC(=O)OC(C)(C)C)NC(=O)OC(C)(C)C)NC(=O)OC(C)(C)C)NC(=O)OC(C)(C)C)NC(=O)OC(C)(C)C)C(=O)O [B6] the “mechanism of cell penetration / uptake” value (4T1 cells) was “energy-dependent endocytosis mechanisms”, the “inhibition of tumor (growth curves, tumor weights)” value [1] was “statistically significant in vivo activity against the tumor” and the “mechanism of cell uptake” value (vacuolar ATPase) was “not taken up by the cell by direct translocation”. For the same compound, the “encapsulation efficiency (EE)” value ([2]; peptide:sulforaphane 1:0.5 molar ratio) was 90% and the “effect on cell viability” value (4T1 breast cancer cells) was “do not affect cell viability”.

With CC(C)(C)OC(=O)N[C@@H](CCNC(=O)[C@H](CCNC(=O)[C@H](CCNC(=O)[C@H](CCNC(=O)[C@H](CCNC(=O)[C@H](CCN)NC(=O)OC(C)(C)C)NC(=O)OC(C)(C)C)NC(=O)OC(C)(C)C)NC(=O)OC(C)(C)C)NC(=O)OC(C)(C)C)C(=O)O [G6] the “mechanism of cell penetration / uptake” value (4T1 cells) was “energy-dependent endocytosis mechanisms”, the “mechanism of cell uptake” value (vacuolar ATPase) was “not taken up by the cell by direct translocation” and the “maximum encapsulation efficiency (EE)” value ([2]; peptide:sulforaphane 1:1.25 molar ratio) was 60%. The “effect on cell viability” value (4T1 breast cancer cells) was “do not affect cell viability”.
